Patent publication US8110703B2, “Retinoid derivative and pharmaceutical composition and use thereof” (Anhui Medical University, priority 2008, dated 2012)
At least one compound was matched to its structure with a doubt left.

System: A549 lung cancer cells
Assay: MTT cell growth and proliferation experiment, A549
Assay type: cell-based
Details: A549, MTT OD 570 nm, 10 ug/ml, 3 d, solvent DMSO (D)
Experimental: 1.1 Reagents 12 retinoic acid derivatives with the final concentrations of 1 ug/ml, 5 ug/ml and 10 ug/ml are synthesized by the Pharmaceutical College of Anhui Medical University using DMSO and anhydrous ethanol, separately packaged for storage at −20° C. and kept out of the light when used, and the final concentration of DMSO is less than 0.1%. MTT is purchased from Sigma Corp. The Coulter DNA detection kit is presented by the Central Lab of Anhui Provincial Hospital. AFP and γ-GT are provided by the Clinical Lab of No. 105 Hospital of PLA. Apoptosis-Hoechst staining kit is purchased from Beyotime Company.
1.2 Cell Culture A549, and HpeG2 cells are stored by our lab. Cell growth condition: DMEM (from GIBICO Company) culture solution is added with 10% of calf serum (purchased from the Hangzhou Sijiqing Biological Engineering Material Co., Ltd.) to culture in a cell culture incubator (37° C., 5% CO2) with saturated humidity.
1.3 Cell Growth and Proliferation Experiments MTT process is used. Cells in the logarithmic phase are picked and seeded on a 96-hole culture board with a cell concentration of 5×10^7/L. Each hole of the board is 200 ul. The next day after the adherence, the original solution is discarded, and the culture solution is added. […]

How did the “OD Value (x ± s)” value turn out when `CC1=C(/C=C/C(C)=C/C=C/C(C)=C/C(=O)Oc2ccc(N)cc2C(F)(F)F)C(C)(C)CCC1` [Example 4a-02, (4-amino-2-trifluoromethylphenyl)-(all-trans)-3,7-dimethyl-9-(2,6,6-trimethyl-1-cyclohexen-1-yl)-2,4,6,8-nonatetraenoate] was run?
Its value is 1.026 ± 0.0.069.
